SMILES strings stand for the structures. This is one part of the list. These are further read-outs of the screen, such as a control signal, another cell line or another target. No call is given for them. Compounds called inactive in the main read-out are mostly missing here. The note in brackets gives the kind of curve behind each potency; many fits are weak.

This passage reports cell number change and AC50 results from PubChem BioAssay AID2685 (National Center for Advancing Translational Sciences (NCATS), 2010).

This test in a line: qHTS Assay for Lipid Storage Modulators in Drosophila S3 Cells.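 As to cell number change: cells counted by Cell Tracker Red CMTPX staining in the red channel.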 Conditions: BODIPY lipid droplet fluorescence, 18-24 h; for cell number change: measured here: cell count max response, cells fed with added oleic acid. The procedure, abridged:
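Drosophila S3 cells got compounds at several concentrations plus oleic acid (400 uM solution). Laser-scanning cytometry with 488 nm excitation read lipid droplets at 500-530 nm and cells at 575-640 nm. Percent activity was relative to 20 uM Triacsin C.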

Setting [1] is: measured here: lipid fluorescence (Fed channel) AC50, cells fed with added oleic acid.
[2] abbreviates: measured here: cell number channel AC50, cells fed with added oleic acid.

In the case of `CNC(=S)N1CCn2cccc2C1c1ccc(F)cc1` (centres undefined), the cell number change amounted to 19.5%. Moreover, under setting [1], the AC50 was 4.61 µM [rising, single point].

For the compound `CCCC1OC23CCCCC2C(C#N)(C(=N)O3)C1(C#N)C#N` (centres undefined), the cell number change is -10.8%. Under setting [2], the AC50 is 1.46 µM [rising, partial curve]. For the same compound, the AC50 under setting [1] was 2.59 µM [rising, partial curve].

For `CC(C)(C)NS(=O)(=O)c1ccc(NS(=O)(=O)Cc2ccccc2)cc1`, the cell number change was 46.4%. The AC50 under setting [2] was 10.3 µM [rising, partial curve].

For the compound `Cc1cc(C)n2cc(CSc3ncn[nH]3)nc2n1`, the cell number change was -19.4%.

For `NC(=O)C1CCN(C(=O)CCc2nc3ccccc3c(=O)[nH]2)CC1`, the cell number change is -6.39%. Moreover, the AC50 under setting [2] was 2.91 µM [rising, single point].

On to `CCn1c(SCC(=O)Nc2cc(C)on2)nnc1-c1cccs1`, for which the AC50 under setting [2] was 0.0731 µM [falling, full curve, poor fit].

Take `CCCC(c1nnnn1C(C)(C)C)N1CCN(c2ccccc2)CC1` (centres undefined): the cell number change came to 13.8%. For the same compound, the AC50 under setting [1] is 2.91 µM [falling, single point].

For `CCOc1cc(/C=C/c2cc(C(=O)O)c3ccccc3n2)ccc1O`, the cell number change is -4.39%. In addition, the AC50 under setting [1] was 4.11 µM [rising, full curve, poor fit].

With `Cc1cc(Br)ccc1OCC(=O)NNC(=O)c1cnccn1`, the cell number change was -41%. Further, under setting [2], the half-maximal activity concentration (AC50) is 16.4 µM [falling, single point]. Under setting [1], the concentration at half-maximal activity (AC50) is 3.26 µM [rising, full curve, poor fit].

As for `Cc1onc(-c2c(F)cccc2Cl)c1C(=O)NCc1ccco1`, the cell number change was -1.19%. Also, the AC50 under setting [1] was 2.91 µM [falling, single point].

`COc1ccc(/C=C(/CC(=O)NCc2ccc(Cl)cc2)c2nc3ccccc3s2)cc1`: the cell number change was -22.9%. Moreover, the AC50 under setting [1] was 29.1 µM [falling, single point].

Turning to `CC(C)(C)c1ccc(-c2nnc3sc(-c4ccccn4)nn23)cc1`, the cell number change worked out at 11.1%.

Regarding `O=C1C2C3C=CC(C3)C2C(=O)N1CNc1ccccn1` (centres undefined), the cell number change is -11.9%. Further, under setting [1], the AC50 was 0.731 µM [falling, single point].

Take `COc1cc(S(=O)(=O)NC(Cc2c[nH]c3ccccc23)C(=O)O)ccc1NC(C)=O` (centres undefined): the cell number change amounted to 19.2%. For the same compound, the AC50 under setting [1] is 5.17 µM [falling, single point].

As for `CCCCn1[nH]c(-c2ccccc2)cc1=O`, the cell number change was found to be 53.6%. Under setting [2], the AC50 is 18.4 µM [rising, single point].

As to `CC1CCCCC1NC(=O)C1CC=CCC1C(=O)O` (centres undefined), the cell number change is -1.25%.

With `Cc1[nH]n(C(N)=S)c(=O)c1N=Nc1ccc(S(=O)(=O)N2CCCCCC2)cc1`, under setting [1], the AC50 is 3.26 µM [rising, single point].

`CCOc1ccccc1NC(=S)N1CCN(c2ccccc2F)CC1`: the cell number change worked out at 11.9%.

On to `COc1cc2cnncc2cc1OC`, for which the cell number change was found to be 20.8%. Further, under setting [1], the concentration at half-maximal activity (AC50) is 32.6 µM [rising, single point].
